Experiment [1] concerns the target Myc-β-catenin full length (UniProt P35222). Description: co-IP; HEK293 cells co-transfected with 2 µg Myc-β-catenin and Flag-USP8 full-length or mutants, 24 h, NP-40 lysis buffer, IP with Myc antibody, blot with Flag antibody.
The next experiment addresses T1, Flag-USP8 full-length (UniProt P40818).
T1 sequence: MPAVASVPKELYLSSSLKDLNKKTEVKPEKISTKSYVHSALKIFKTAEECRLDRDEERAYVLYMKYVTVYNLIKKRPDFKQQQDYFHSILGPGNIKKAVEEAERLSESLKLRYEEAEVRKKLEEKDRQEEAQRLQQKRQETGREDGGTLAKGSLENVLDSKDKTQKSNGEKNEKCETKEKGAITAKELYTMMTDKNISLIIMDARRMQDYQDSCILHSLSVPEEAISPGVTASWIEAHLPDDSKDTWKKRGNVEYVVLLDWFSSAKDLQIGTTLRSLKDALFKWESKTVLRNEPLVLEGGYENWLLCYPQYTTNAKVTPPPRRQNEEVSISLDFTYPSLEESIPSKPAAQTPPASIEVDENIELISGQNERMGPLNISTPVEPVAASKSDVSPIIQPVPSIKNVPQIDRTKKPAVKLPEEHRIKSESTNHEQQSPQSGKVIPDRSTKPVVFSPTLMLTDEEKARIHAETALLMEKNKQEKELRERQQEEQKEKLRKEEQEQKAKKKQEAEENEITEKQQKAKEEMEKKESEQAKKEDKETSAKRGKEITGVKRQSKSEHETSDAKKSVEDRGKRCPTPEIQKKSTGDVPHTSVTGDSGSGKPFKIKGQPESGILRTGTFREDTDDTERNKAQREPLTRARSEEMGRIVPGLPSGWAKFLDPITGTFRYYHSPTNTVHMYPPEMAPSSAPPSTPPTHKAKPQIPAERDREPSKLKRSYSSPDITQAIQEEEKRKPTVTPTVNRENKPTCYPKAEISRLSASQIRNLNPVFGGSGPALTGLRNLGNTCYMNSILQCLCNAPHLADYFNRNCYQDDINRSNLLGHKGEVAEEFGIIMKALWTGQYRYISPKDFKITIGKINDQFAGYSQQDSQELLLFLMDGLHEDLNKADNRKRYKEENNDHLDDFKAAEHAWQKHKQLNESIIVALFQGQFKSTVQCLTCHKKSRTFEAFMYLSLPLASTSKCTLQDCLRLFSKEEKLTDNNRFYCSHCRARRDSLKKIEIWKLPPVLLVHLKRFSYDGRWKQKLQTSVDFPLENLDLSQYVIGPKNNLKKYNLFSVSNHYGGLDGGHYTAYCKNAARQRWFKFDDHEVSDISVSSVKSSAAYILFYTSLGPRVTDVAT
Description: co-IP; HEK293 cells co-transfected with 2 µg Flag-USP8 and Myc-β-catenin full length or mutants, 24 h, NP-40 lysis buffer, IP with Flag antibody, blot with Myc antibody.

Amino acid sequences for entries named in this document (tags omitted).
UniProt P35222: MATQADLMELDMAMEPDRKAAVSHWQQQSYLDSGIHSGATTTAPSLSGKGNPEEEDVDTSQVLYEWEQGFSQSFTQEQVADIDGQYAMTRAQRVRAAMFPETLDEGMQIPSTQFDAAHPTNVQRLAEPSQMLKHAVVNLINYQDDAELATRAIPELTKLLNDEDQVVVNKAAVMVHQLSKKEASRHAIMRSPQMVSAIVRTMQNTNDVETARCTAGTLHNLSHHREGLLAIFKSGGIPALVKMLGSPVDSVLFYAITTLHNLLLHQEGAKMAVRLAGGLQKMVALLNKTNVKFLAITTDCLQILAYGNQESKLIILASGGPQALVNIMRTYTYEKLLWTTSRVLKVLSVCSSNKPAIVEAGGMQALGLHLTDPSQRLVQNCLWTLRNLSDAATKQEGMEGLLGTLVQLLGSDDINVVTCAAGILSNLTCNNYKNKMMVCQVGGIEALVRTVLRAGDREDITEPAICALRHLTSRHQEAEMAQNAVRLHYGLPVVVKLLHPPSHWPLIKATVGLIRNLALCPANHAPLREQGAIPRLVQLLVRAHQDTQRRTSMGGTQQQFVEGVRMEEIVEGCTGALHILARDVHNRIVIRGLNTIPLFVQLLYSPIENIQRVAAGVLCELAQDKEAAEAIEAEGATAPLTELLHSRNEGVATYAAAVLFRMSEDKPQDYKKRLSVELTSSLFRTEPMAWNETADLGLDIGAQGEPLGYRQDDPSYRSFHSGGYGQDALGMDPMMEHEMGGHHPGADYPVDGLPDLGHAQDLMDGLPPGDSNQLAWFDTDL

No constants are given. Whether binding was seen depends on the method and setting. In cells and extracts the contact can be indirect. A result given as binding can be weak or reduced; the word gives no strength. For some assays here: Tags and fused reporters may be left off the sequences shown.

Consider “Flag-USP8 deletion mutant, USP domain (from UniProt P40818) (domain or fragment)”, for which the binding result in experiment [1] was “binds”.
For “Myc-β-catenin deletion mutant, ARM domain (domain or fragment)”, the binding result with Flag-USP8 full-length is “binds”.
